Assay results: patent US20250347696A1, “SELF-ACTIVATING FÖRSTER RESONANCE ENERGY TRANSFER (saFRET) BIOSENSORS AND METHODS FOR MAKING AND USING THEM” (The Regents of the University of California, priority 2021, published 2025)
At least one compound was matched to its structure with a doubt left.

Target: T1, ZAP70 biosensor with kinase-dead domain (saFRETkd) (Homo sapiens, UniProt P43403, K369A)
T1 construct: kinase 327-619 (both KA and KM) was chosen for generating the Zap70 biosensor substrate libraries; expressed in transfected cells; host or cells: HEK cells
T1 sequence (P43403 327-619 K369A): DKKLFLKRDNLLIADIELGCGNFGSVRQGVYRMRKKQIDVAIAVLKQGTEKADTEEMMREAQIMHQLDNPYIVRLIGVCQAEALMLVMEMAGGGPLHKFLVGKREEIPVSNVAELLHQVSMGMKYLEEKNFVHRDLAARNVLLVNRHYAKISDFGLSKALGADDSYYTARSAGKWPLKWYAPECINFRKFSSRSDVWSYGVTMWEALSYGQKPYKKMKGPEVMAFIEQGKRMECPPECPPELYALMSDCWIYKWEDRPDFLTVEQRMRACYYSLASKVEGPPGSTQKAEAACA
Test: ZAP70 saFRET biosensor with kinase-dead domain (saFRETkd), control / counter screening
Assay type: cell-based
Details: 10 μM library inhibitors
Procedure: We first screened a 96-member kinase inhibitor library to identify efficient inhibitors of ZAP70 kinase. […] After 40 minutes of incubation with inhibitors, the cells were imaged, and the FRET ratio changes of individual inhibitors compared to the solvent control were calculated to identify promising candidates after this primary endpoint screening (FIG. 5B-D). We further exploited a control biosensor with a kinase-dead domain (saFRETkd) for counter screening to eliminate false-positive hits due to auto-fluorescence or other non-specific effects^48.
Firstly, we transfected HEK293 cells with optimized saFRET biosensor and established a stable cell line. […] HEK293 stable cell line was then cultured in 96 glass bottom wells for approximately 24 hours and then should be ready for high throughput screening (see FIG. 5A, Example 1). […] After 40 minutes of incubation with inhibitors, the cells were imaged, and the FRET ratio changes of individual inhibitors compared to the solvent control were calculated to identify promising candidates after this primary endpoint screening (see FIG. 5B-G, Example 1). We further exploited a control biosensor with a mutated-kinase dead domain (saFRETkd) for counter screening to eliminate false-positive hits due to auto-fluorescence or other non-specific effects (Simeonov and Davis 2004).

## CCN(CC)CCNC(=O)c1c(C)[nH]c(/C=C2\C(=O)Nc3ccc(F)cc32)c1C [sunitinib]
  FRET ratio change with saFRETkd in counter screening: nonspecific reduction of FRET ratio
